The numbers were not newly measured in US20210137853A1, “METHODS OF TREATING EPILEPTIC PATIENTS WITH FENFLURAMINE” (Zogenix International Limited, priority 2019, published 2021), which cites them from elsewhere.

The structures appear in SMILES notation.

The conditions of this data set: Table 4; compound i.p. in mice; cited from earlier work.
For the compound `NC(=O)N1c2ccccc2C=Cc2ccccc21` [Carbamazepine], the “Time to peak (Time to Peak Activity)” value is 0.25.
For `CN(C)CCCN1c2ccccc2Sc2ccc(Cl)cc21` [Chlorpromazine], the “Time to peak (Time to Peak Activity)” value is on record as 00.5.
`CN1CCN(C2=Nc3ccccc3Oc3ccc(Cl)cc32)CC1` [Loxapine]: the “Time to peak (Time to Peak Activity)” value is 0.5.
Take `Clc1ccc2c(c1)N=C(N1CCNCC1)c1ccccc1N2` [N-desmethyl-clozapine, N-desmethylclozapine]: the “Time to peak (Time to Peak Activity)” value was 11.0.
Turning to `O=c1[nH]c2ccccc2n1C1CCN(CCCC(c2ccc(F)cc2)c2ccc(F)cc2)CC1` [Pimozide], the “Time to peak (Time to Peak Activity)” value is reported as 0.5.
With `CC(C)NCC(O)COc1cccc2[nH]ccc12` (centres unmarked) [Pindolol], the “Time to peak (Time to Peak Activity)” value is 1.
In the case of `CN1CC2c3ccccc3Oc3ccc(Cl)cc3C2C1` (centres unmarked) [asenapine], the “Time to peak (Time to Peak Activity)” value is 11.0.
For `CN(C)CCCN1c2ccccc2CCc2ccc(Cl)cc21` [clomipramine], the “Time to peak (Time to Peak Activity)” value is reported as 11.
In the case of `CN(C)CCC=C1c2ccccc2COc2ccccc21` [doxepin], the “Time to peak (Time to Peak Activity)” value is given as 00.25.
Consider `CN1CCN2c3ccccc3Cc3ccccc3C2C1` (centres unmarked) [mianserin], for which the “Time to peak (Time to Peak Activity)” value is on record as 11.0.
As for `OCCN1CCN(CCCN2c3ccccc3Sc3ccc(Cl)cc32)CC1` [perphenazine], the “Time to peak (Time to Peak Activity)” value is 1.0.
